Data as given in PubChem BioAssay AID445 (National Center for Advancing Translational Sciences (NCATS), 2006).
Some of the results follow. The main result of the screen is listed elsewhere. These columns were measured beside it and carry no call. Compounds called inactive in the main read-out are mostly missing here. The note in brackets gives the kind of curve behind each potency; many fits are weak.

Assay: IkB Signaling
Conditions: ABC-DLBCL IkBa-CBG/CBR dual luciferase ratio (green luciferase fused to IkBa over red control in OCI-Ly3 lymphoma cells), 4 h
Summary of the method: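 Luminescence ratio of IκBα-fused green versus native red beetle luciferase in OCI-Ly3 cells, 4 h post-doxycycline with compound; red signal alone, scaled from basal (0%) to zero light (-100%), flagged nonspecific or cytotoxic effects.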

[1] = measured here: control luc red channel unless noted
[2] = measured here: IkB-luc green channel
[3] = measured here: control luc red channel

COc1ccc(-n2cc(-c3ccccc3)c3c(NC4CCCC4)ncnc32)cc1
AC50 [1]: 39.8 µM [falling, single point]

CCc1cccc(NC(=O)Cn2c(=O)n(-c3cccc(Cl)c3)c(=O)c3c2c2cc(C)ccc2n3C)c1
AC50 [1]: 0.01 µM [falling, full curve]

Cn1c(SCC(=O)N2CCCc3ccccc32)ncc(C(=O)Nc2ccccc2)c1=O
AC50 [1]: 31.6 µM [falling, single point]

COCCNC(=O)CSc1nc(-c2ccccc2)[nH]c1-c1ccc(OC)cc1
AC50 [1]: 12.6 µM [falling, partial curve]

CCOc1ccc(NC(=O)C2CCCN(S(=O)(=O)c3c(C)noc3/C=C/N(C)C)C2)cc1 (centres undefined)
AC50 [1]: 31.6 µM [falling, single point]

CCOC(=O)C1=C(CN2CCN(c3ccc(OC)cc3)CC2)NC(=O)NC1c1ccc(Cl)cc1 (centres undefined)
AC50 [1]: 15.8 µM [falling, single point]

Cc1cc(CN2CCN(c3cccc(C)c3C)CC2)cs1
AC50 [1]: 12.6 µM [falling, single point]

Fc1ccc2[nH]c(-c3cccs3)cc2c1
AC50 [1]: 0.631 µM [rising, full curve]

Cc1ccc(-c2nc(CSc3nncn4c3cc3occc34)c(C)o2)cc1
AC50 [1]: 39.8 µM [falling, single point]

Cc1ccc(Cn2cc(C(=O)c3ccc4c(c3)OCO4)c(=O)c3cc(C)ccc32)cc1
AC50 [1]: 15.8 µM [falling, single point]

O=C(CSc1nnc(-c2ccccc2)o1)Nc1ccccc1F
AC50 [1]: 0.316 µM [falling, full curve]

Cc1ccc(CNC(=O)c2cnn(-c3cccc(C)c3)c2C2CCN(C(=O)OC(C)(C)C)CC2)cc1
AC50 [1]: 5.01 µM [falling, partial curve]

CC(=O)c1ccc(NS(=O)(=O)c2ccc(-c3cnc(C4CC4)o3)cc2)cc1
AC50 [1]: 15.8 µM [falling, partial curve]

CCC1CCCCN1S(=O)(=O)c1cc(C(=O)Nc2ccc(C)c(F)c2)ccc1F (centres undefined)
AC50 [1]: 6.31 µM [falling, full curve]

Cc1ccc(C(=O)N2CCN(c3ccccc3)CC2)cc1S(=O)(=O)N1CCCC1
AC50 [1]: 10 µM [falling, partial curve]

CCOC(=O)N1CCN(C(=O)Cn2ncc3c4ccccc4n(Cc4ccc(F)cc4)c3c2=O)CC1
AC50 [1]: 15.8 µM [falling, partial curve]

Cc1noc(C)c1S(=O)(=O)NCCc1csc2nc(-c3ccc(Cl)cc3)nn12
AC50 [1]: 39.8 µM [falling, single point]

COc1ccccc1-c1nnc(C2CCN(S(=O)(=O)c3ccc(F)c(C)c3)CC2)o1
AC50 [1]: 15.8 µM [falling, partial curve]

O=C(COc1ccc(F)cc1)Nc1ccc(Cl)c(-c2nc3ccccc3[nH]2)c1
AC50 [1]: 12.6 µM [falling, partial curve]

Cc1nc(-c2ccc(F)cc2)sc1CCNC(=O)c1ccc(C(C)(C)C)cc1
AC50 [1]: 12.6 µM [falling, partial curve]

Cc1ccc(Cl)cc1NS(=O)(=O)c1ccc(N2CCCCS2(=O)=O)cc1
AC50 [1]: 39.8 µM [falling, single point]

Cc1ccc(NC(=O)Cn2c(=O)n(Cc3ccccc3)c(=O)c3c2c2cc(C)ccc2n3C)cc1
AC50 [1]: 2.51 µM [rising, partial curve]

Cc1ccc(C(=O)NCC(c2cccnc2)N2CCc3ccccc3C2)cc1C (centres undefined)
AC50 [1]: 10 µM [falling, partial curve]

CCOc1ccc(N2CC(c3nc4ccccc4n3CCOc3ccccc3)CC2=O)cc1 (centres undefined)
AC50 [1]: 39.8 µM [falling, single point]

CCc1nc(NCc2ccccn2)c2oc3ccccc3c2n1
AC50 [1]: 12.6 µM [falling, partial curve]

Cc1nn(-c2ccccc2)c2sc(C(=O)Nc3cccc(Br)c3)cc12
AC50 [1]: 39.8 µM [falling, single point]

CCC1CCCCN1C(=O)c1cc(-c2ccc(Cl)c(Cl)c2)on1 (centres undefined)
AC50 [1]: 10 µM [falling, partial curve]

Cc1nnc(Sc2nc3ccccc3o2)c2ccccc12
AC50 [2]: 31.6 µM [rising, partial curve]
AC50 [3]: 12.6 µM [falling, partial curve]

Cc1cc(=O)n2nc(-c3ccccc3)sc2n1
AC50 [1]: 12.6 µM [falling, partial curve]

Cc1ccccc1NCc1nc2ccccc2n1CCOc1ccccc1
AC50 [1]: 25.1 µM [falling, partial curve]

CCN1C(=O)c2ccccc2Sc2ccc(NC(=O)c3ccc(C#N)cc3)cc21
AC50 [1]: 25.1 µM [falling, partial curve]

Cc1ccc2nc(NC(=O)CN3CCOCC3)sc2c1
AC50 [1]: 15.8 µM [falling, partial curve]

Cc1nc2sc(C(c3cccs3)N3CCN(c4ccccc4)CC3)c(O)n2n1 (centres undefined)
AC50 [2]: 12.6 µM [rising, partial curve]
AC50 [3]: 10 µM [falling, partial curve]

COc1ccc(C(=O)Nc2nc3c(s2)Cc2cc(OC)ccc2-3)cc1
AC50 [1]: 3.98 µM [falling, partial curve]

COc1ccc(NC(=O)CSc2oc(-c3ccco3)nc2S(=O)(=O)c2ccccc2)c(OC)c1
AC50 [1]: 15.8 µM [falling, partial curve]

CCOC(=O)CSc1nc2c(sc3ccccc32)c(=O)n1Cc1ccc(OC)cc1
AC50 [1]: 0.2 µM [rising, full curve, poor fit]

Nc1c(C(=O)c2ccccc2)sc(Nc2ccc(Cl)c(Cl)c2)c1C(=O)Nc1ccccc1
AC50 [1]: 2 µM [falling, full curve]

Cc1ccc2c(c1)N(C(=O)N1CCC(C(=O)NCc3ccccc3F)CC1)CC(C)O2 (centres undefined)
AC50 [1]: 0.794 µM [rising, full curve]

Cc1cccc(NC(=O)c2sc(-n3nc(C)c(CCC(C)C)c3C)nc2C)c1
AC50 [1]: 10 µM [falling, partial curve]

N#Cc1ccccc1OCC(=O)N1CCN(c2ccccc2F)CC1
AC50 [1]: 25.1 µM [falling, partial curve]

O=C1CSC(=S)N1Cc1cccnc1
AC50 [1]: 7.94 µM [falling, full curve]

CCCCn1c(SCC(=O)N2CCN(c3ccccc3)CC2)nc2ccsc2c1=O
AC50 [1]: 5.01 µM [falling, partial curve]

COc1ccc(-c2cc(C(F)(F)F)n3nc(C(=O)N4CCCCC4)cc3n2)cc1
AC50 [1]: 1.58 µM [rising, partial curve]

CCC1CN(C(=O)N2CCC(C(=O)N3CCN(c4cc(C)ccc4C)CC3)CC2)c2ccccc2O1 (centres undefined)
AC50 [1]: 0.01 µM [falling, full curve, poor fit]

Cc1ccc(C(=O)NC2(C(F)(F)F)N=C(c3ccccc3)N(C3CCCCC3)C2=O)cc1 (centres undefined)
AC50 [1]: 15.8 µM [falling, single point]

Cc1cccc(C(=O)N2CCc3cc(CNS(=O)(=O)c4cccs4)ccc32)c1
AC50 [1]: 39.8 µM [falling, single point]

CCCCCn1c(=O)c2c(nc3n2CCN3c2ccc(Br)cc2)n(C)c1=O
AC50 [1]: 2 µM [falling, full curve]

c1ccc(OCCSc2nnc3sc4ccccc4n23)cc1
AC50 [1]: 5.01 µM [falling, partial curve]

O=C(c1ccco1)N1CCCC(c2nc(-c3ccc(S(=O)(=O)NCc4ccccc4)cc3)no2)C1 (centres undefined)
AC50 [1]: 6.31 µM [falling, partial curve]

O=C(CSc1nc2c(cnn2-c2ccc(F)cc2)c(=O)[nH]1)Nc1ccccc1C(F)(F)F
AC50 [1]: 0.251 µM [falling, full curve]

Cn1c(=O)cc(OCCCC(=O)NCc2ccc3c(c2)OCO3)c2ccccc21
AC50 [1]: 39.8 µM [rising, single point] [measured here: IkB-luc green channel]

COc1cccc(CNC(=O)c2cc3ccc4cccnc4c3[nH]2)c1
AC50 [1]: 7.94 µM [falling, partial curve]

COc1ccccc1N1CCN(C(=O)c2cc3c(=O)oc4ccccc4c3s2)CC1
AC50 [1]: 39.8 µM [falling, single point]

O=C(O)c1ccc(C2Nc3ccccc3-c3nnc(SCc4ccc(Cl)cc4)nc3O2)cc1 (centres undefined)
AC50 [1]: 20 µM [falling, single point]

COc1cc(OC)c(NC(=O)N2CC=C(c3c[nH]c4ccccc34)CC2)cc1Cl
AC50 [1]: 5.01 µM [falling, partial curve]

COc1cccc(C(=O)Nc2ccc(C(=O)OCc3cc(=O)n4nc(C5CC5)sc4n3)cc2)c1
AC50 [1]: 2.51 µM [rising, full curve, poor fit]

COc1ccccc1OCc1nc(-c2cccc(C)c2)no1
AC50 [1]: 12.6 µM [falling, partial curve]

CC1CCN(C(=O)C(C)Sc2nc(-c3ccccc3)cc(C(F)(F)F)n2)CC1 (centres undefined)
AC50 [1]: 15.8 µM [falling, partial curve]

O=C(Cn1c(=O)n2nc(-c3cccc(F)c3)nc2c2ccccc21)N1CCN(c2ccccc2F)CC1
AC50 [1]: 0.02 µM [rising, full curve, poor fit]

CC(Sc1nc2c([nH]c3ccccc32)c(=O)n1-c1ccccc1)c1ccccc1 (centres undefined)
AC50 [1]: 25.1 µM [falling, partial curve, poor fit]

CCOC(=O)c1cc2cc(-c3c(C(=O)OCC)oc4cc(O)cc(O)c4c3=O)ccc2o1
AC50 [1]: 12.6 µM [falling, partial curve]

CCOC(=O)C1CCN(C(=O)c2ccc3c(c2)N=C(CC)c2cc(C)ccc2S3)CC1
AC50 [1]: 25.1 µM [falling, partial curve]
